The list is a part of this screen's results and no random one: it is rich in T/C values a quarter to a half above the control, in often repeated tests (any T/C) and in doses without a T/C. Further doses and runs are listed elsewhere. T/C gives the treated animals as a percentage of the vehicle group. Some entries give survivors of the animals treated and no T/C: the source holds a T/C of zero for them, seemingly a mark for toxic or unscored doses. Some doses without a T/C left all or most animals alive at the check, yet need not have been tolerated: the source hardly ever lists a survival T/C far under the control, and the zero likely stands for such cases as well. Survivors were counted at the toxicity check, usually on the fifth day, unless a day is given; later deaths do not show. Schedule codes are those of the source, read here as Q, the interval in days (D) or hours (H), X, the number of doses. Some entries were tested several times; the results are listed from low to high. For survival time, the PubChem record calls one and a half times the control and up active, and a quarter to a half above the control has no call in these data; cut-offs in other NCI protocols can differ. Some T/C values are followed by the survivors on the day toxicity was checked, most often the fifth; without a count, all were alive then.
Test system: B6C3F1 mice, ip Sarcoma M5076, median survival T/C
Assay: NCI In Vivo Anticancer Drug Screen. Data for tumor model Sarcoma M5076 (intraperitoneal) in B6C3F1 mice
Conditions: T/C endpoint: median survival time, higher T/C = longer survival
Procedure, shortened: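 The readout is a ratio of survival in drug-treated animals to survival in animals given vehicle alone, taken in mice bearing a transplanted tumour line.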

[1] = dose: 200.0 mg/kg/injection, schedule: Q04DX004 (ip), vehicle: suspension in saline
[2] = dose: 400.0 mg/kg/injection, schedule: Q04DX004 (ip), vehicle: suspension in saline
[3] = dose: 150.0 mg/kg/injection, schedule: Q04DX004 (ip), vehicle: saline
[4] = dose: 600.0 mg/kg/injection, schedule: Q04DX004 (ip), vehicle: saline with Tween-80
[5] = dose: 50.0 mg/kg/injection, schedule: Q04DX004 (ip), vehicle: saline with Tween-80
[6] = dose: 200.0 mg/kg/injection, schedule: Q04DX004 (ip), vehicle: saline with Tween-80
[7] = dose: 400.0 mg/kg/injection, schedule: Q04DX004 (ip), vehicle: saline with Tween-80
[8] = dose: 100.0 mg/kg/injection, schedule: Q04DX004 (ip), vehicle: saline with Tween-80

Question: How did the survivor count (dose: 150.0 mg/kg/injection, schedule: Q04DX004 (ip), vehicle: DMSO) turn out when `NC(=S)N/N=C/c1cc(=O)c2cc(Cl)ccc2o1` was run?
Answer: 10 of 10 on day 14

Question: What about the survivor count (dose: 300.0 mg/kg/injection, schedule: Q04DX004 (ip), vehicle: DMSO) of the same molecule?
Answer: 10 of 10 on day 14

Question: What about the survivor count (dose: 600.0 mg/kg/injection, schedule: Q04DX004 (ip), vehicle: DMSO) of the same molecule?
Answer: 9 of 10 on day 14

Question: What about the survivor count (dose: 1200.0 mg/kg/injection, schedule: Q04DX004 (ip), vehicle: DMSO) of the same molecule?
Answer: 9 of 10 on day 14

Question: For `N/C(=N/N=C/c1cc(Br)cc(Br)c1O)NO`, which survivor count [1] is on record?
Answer: 5 of 10 on day 14

Question: And the survivor count [2]?
Answer: 3 of 10 on day 14

Question: What does the source list for `O=C1N[C@@H]2C(=C[C@H](O)[C@@H](O)[C@H]2O)c2cc3c(c(O)c21)OCO3`?
Answer: T/C (dose: 0.75 mg/kg/injection, schedule: Q01DX009 (ip), vehicle: saline with Tween-80): 125 % of control; T/C (dose: 0.75 mg/kg/injection, schedule: Q04DX004 (ip), vehicle: saline with Tween-80): 144 % of control; T/C (dose: 1.5 mg/kg/injection, schedule: Q04DX004 (ip), vehicle: saline with Tween-80): 145 % of control; T/C (dose: 3.0 mg/kg/injection, schedule: Q01DX009 (ip), vehicle: saline with Tween-80): 127 % of control [6 of 9 alive on day 14]; T/C (dose: 3.0 mg/kg/injection, schedule: Q04DX004 (ip), vehicle: saline with Tween-80): 133 [8 of 10 alive on day 14] and 139 % of control; survivor count (dose: 6.0 mg/kg/injection, schedule: Q01DX009 (ip), vehicle: saline with Tween-80): 1 of 10 on day 14; survivor count (dose: 12.0 mg/kg/injection, schedule: Q04DX004 (ip), vehicle: saline with Tween-80): 2 of 10 on day 14 and 4 of 10 on day 14

Question: With `CN(CN1C(=O)CCC1=O)CN1C(=O)CCC1=O` as the molecule, how does the survivor count (dose: 800.0 mg/kg/injection, schedule: Q04DX004 (ip), vehicle: saline) read?
Answer: 2 of 10 on day 14

Question: How did the T/C [3] turn out when `O=CC(CO)CC(C=O)n1cnc2c(=O)[nH]cnc21` (centres undefined) was run?
Answer: 130 % of control

Question: And the survivor count (dose: 600.0 mg/kg/injection, schedule: Q04DX004 (ip), vehicle: saline)?
Answer: 5 of 10 on day 14

Question: How did the survivor count (dose: 40.0 mg/kg/injection, schedule: Q04DX004 (ip), vehicle: Klucel (hydroxypropylcellulose) (HPC)) turn out when `CCCCCCCC1C(=O)OC2CC3C(C)=CC(=O)C(O)C3(C)C3C4(O)OCC23C1C(C)C4O` (centres undefined) was run?
Answer: 0 of 10 on day 14

Question: For `O=c1c(-c2nn[nH]n2)cnc2sc3cc(Cl)ccc3n12`, which survivor count (dose: 300.0 mg/kg/injection, schedule: Q04DX004 (ip), vehicle: saline with Tween-80) is on record?
Answer: 10 of 10 on day 14

Question: What about the survivor count [4] of the same molecule?
Answer: 5 of 10 on day 14

Question: For `Cc1noc2nc(-c3ccccc3)cc(N3CCN(C)CC3)c12`, which survivor count (dose: 400.0 mg/kg/injection, schedule: Q04DX004 (ip), vehicle: other) is on record?
Answer: 3 of 10 on day 14

Question: With `CO[C@@]12[C@H](COC(N)=O)C3=C(C(=O)C(C)=C(N)C3=O)N1C[C@@H]1N[C@@H]12` as the molecule, how does the T/C (dose: 1.0 mg/kg/injection, schedule: Q04DX004 (ip), vehicle: saline, evaluated on day 60) read?
Answer: 132 % of control

Question: And the T/C (dose: 1.0 mg/kg/injection, schedule: Q04DX004 (ip), vehicle: saline, evaluated on day 75)?
Answer: 133 % of control

Question: And the survivor count (dose: 8.0 mg/kg/injection, schedule: Q04DX004 (ip), vehicle: saline)?
Answer: 0 of 10 on day 14 and 2 of 10 on day 14

Question: What does the source list for `NS(=O)(=O)OCCCCCCCOS(N)(=O)=O`?
Answer: T/C [5]: 147 % of control; survivor count [6]: 8 of 10 on day 14; survivor count [7]: 0 of 10 on day 14

Question: For `COc1cc(NCc2ccc3nc(N)nc(N)c3c2C)cc(OC)c1OC`, which T/C (dose: 7.5 mg/kg/injection, schedule: Q04DX004 (ip), vehicle: Klucel (hydroxypropylcellulose) (HPC)) is on record?
Answer: 134 % of control

Question: What about the T/C (dose: 15.0 mg/kg/injection, schedule: Q04DX004 (ip), vehicle: Klucel (hydroxypropylcellulose) (HPC), evaluated on day 34) of the same molecule?
Answer: 128 % of control

Question: And the T/C (dose: 15.0 mg/kg/injection, schedule: Q04DX004 (ip), vehicle: Klucel (hydroxypropylcellulose) (HPC), evaluated on day 60)?
Answer: 130 and 135 % of control

Question: What about the T/C (dose: 30.0 mg/kg/injection, schedule: Q04DX004 (ip), vehicle: Klucel (hydroxypropylcellulose) (HPC)) of the same molecule?
Answer: 142 % of control

Question: What about the survivor count (dose: 120.0 mg/kg/injection, schedule: Q04DX004 (ip), vehicle: Klucel (hydroxypropylcellulose) (HPC)) of the same molecule?
Answer: 3 of 10 on day 14 and 4 of 10 on day 14

Question: Which results are given for `S=c1sc(-c2ccc(Cl)cc2)nn1CSc1nc2ccccc2o1`?
Answer: survivor count (dose: 75.0 mg/kg/injection, schedule: Q04DX004 (ip), vehicle: saline with Tween-80): 9 of 10 on day 14; survivor count (dose: 150.0 mg/kg/injection, schedule: Q04DX004 (ip), vehicle: saline with Tween-80): 10 of 10 on day 14; survivor count [4]: 8 of 10 on day 14

Question: What does the source list for `COc1cc(C2CC(C)(O)Oc3cc4c(cc32)OCO4)cc(OC)c1OC` (centres undefined)?
Answer: T/C [5]: 130 % of control [8 of 10 alive on day 14]; T/C [8]: 130 % of control [9 of 10 alive on day 14]; survivor count [8]: 4 of 10 on day 14; survivor count [6]: 0 of 10 on day 14 and 7 of 10 on day 14; survivor count [7]: 0 of 10 on day 14; survivor count (dose: 800.0 mg/kg/injection, schedule: Q04DX004 (ip), vehicle: saline with Tween-80): 0 of 10 on day 14

Question: What does the source list for `Cc1c(-c2ccc(-c3ccccc3F)cc2)nc2ccc(F)cc2c1C(=O)O`?
Answer: survivor count (dose: 50.0 mg/kg/injection, schedule: Q01DX009 (ip), vehicle: water): 4 of 10 on day 14; survivor count (dose: 100.0 mg/kg/injection, schedule: Q01DX009 (ip), vehicle: water): 0 of 10 on day 14

Question: `CCN(CC)CC(=O)O[C@]1(CC)C(=O)OCc2c1cc1n(c2=O)Cc2cc3ccccc3nc2-1` was tested. Which T/C (dose: 16.0 mg/kg/injection, schedule: Q04DX004 (ip), vehicle: water) did it give?
Answer: 129 [9 of 10 alive on day 14] and 133 % of control

Question: And the survivor count (dose: 32.0 mg/kg/injection, schedule: Q04DX004 (ip), vehicle: water)?
Answer: 1 of 10 on day 14 and 6 of 10 on day 14

Question: Which survivor count [4] does the source give for `O=S(=O)(O)C1=CC(=N\Cl)/C=CC/1=N/Cl` here?
Answer: 0 of 10 on day 14

Question: For `OCC(O)C(O)C(O)C(O)CO` (centres undefined), which survivor count [3] is on record?
Answer: 10 of 10 on day 14

Question: How did the survivor count [5] turn out when `CCC(NC(N)=O)C(CC)NC(N)=O` (centres undefined) was run?
Answer: 7 of 10 on day 14

Question: And the survivor count [8]?
Answer: 0 of 10 on day 14

Question: And the survivor count [6]?
Answer: 1 of 10 on day 14

Question: How did the survivor count (dose: 1200.0 mg/kg/injection, schedule: Q04DX004 (ip), vehicle: water) turn out when `OC1OC2COC(c3ccccc3)OC2C(O)C1O` (centres undefined) was run?
Answer: 10 of 10 on day 14

Question: How did the survivor count (dose: 200.0 mg/kg/injection, schedule: Q04DX004 (ip), vehicle: Klucel (hydroxypropylcellulose) (HPC)) turn out when `O=S(=O)(c1cccc(N=C=S)c1)c1cccc(N=C=S)c1` was run?
Answer: 4 of 10 on day 14

Question: `CCN(CC)CCN1C(=O)C2C3C=CC(C2C1=O)C1C2C(=O)N(CCN(CC)CC)C(=O)C2C31` (centres undefined) was tested. Which survivor count (dose: 400.0 mg/kg/injection, schedule: Q04DX004 (ip), vehicle: water) did it give?
Answer: 0 of 10 on day 14

Question: For `O=C(O)CC1C(=O)OC2C3COC(=O)c4cc(O)c(O)c(O)c4-c4c(cc(O)c(O)c4O)C(=O)OC2C(OC(=O)c2cc(O)c(O)c4c2C1C(O)C(=O)O4)C(OC(=O)c1cc(O)c(O)c(O)c1)O3` (centres undefined), which survivor count [1] is on record?
Answer: 1 of 10 on day 14

Question: And the survivor count [2]?
Answer: 0 of 10 on day 14
